This note sets out measurements from the supplement of paper PMC10849652.

Protein sequences, listed by entry. Tags and fused reporters are not part of them. Lines headed by an entry give the natural chain unless they say otherwise; changes in a name come on top.
UniProt Q96G25: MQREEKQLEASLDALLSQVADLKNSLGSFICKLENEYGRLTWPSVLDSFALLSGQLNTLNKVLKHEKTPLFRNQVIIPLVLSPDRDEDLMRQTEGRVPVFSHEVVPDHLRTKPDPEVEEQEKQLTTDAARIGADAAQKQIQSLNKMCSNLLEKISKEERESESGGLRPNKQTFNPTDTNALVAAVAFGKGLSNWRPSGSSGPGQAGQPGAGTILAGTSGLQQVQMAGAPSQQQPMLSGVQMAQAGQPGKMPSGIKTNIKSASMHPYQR
UniProt Q9UQ53: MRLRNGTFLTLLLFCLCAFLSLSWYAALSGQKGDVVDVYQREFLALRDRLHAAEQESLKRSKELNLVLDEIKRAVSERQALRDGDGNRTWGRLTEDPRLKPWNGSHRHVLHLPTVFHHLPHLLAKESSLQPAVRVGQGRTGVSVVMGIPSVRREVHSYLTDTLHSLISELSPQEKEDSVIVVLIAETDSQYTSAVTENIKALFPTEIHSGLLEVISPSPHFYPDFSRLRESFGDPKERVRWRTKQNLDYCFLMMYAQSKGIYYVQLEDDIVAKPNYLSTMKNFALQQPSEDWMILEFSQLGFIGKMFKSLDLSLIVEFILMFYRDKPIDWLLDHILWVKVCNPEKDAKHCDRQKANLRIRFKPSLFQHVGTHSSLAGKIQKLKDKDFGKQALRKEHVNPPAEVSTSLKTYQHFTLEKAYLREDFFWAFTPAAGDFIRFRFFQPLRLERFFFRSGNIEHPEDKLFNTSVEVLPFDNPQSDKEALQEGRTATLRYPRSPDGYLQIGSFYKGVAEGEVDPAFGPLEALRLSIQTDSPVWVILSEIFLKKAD
UniProt Q8N6Q8: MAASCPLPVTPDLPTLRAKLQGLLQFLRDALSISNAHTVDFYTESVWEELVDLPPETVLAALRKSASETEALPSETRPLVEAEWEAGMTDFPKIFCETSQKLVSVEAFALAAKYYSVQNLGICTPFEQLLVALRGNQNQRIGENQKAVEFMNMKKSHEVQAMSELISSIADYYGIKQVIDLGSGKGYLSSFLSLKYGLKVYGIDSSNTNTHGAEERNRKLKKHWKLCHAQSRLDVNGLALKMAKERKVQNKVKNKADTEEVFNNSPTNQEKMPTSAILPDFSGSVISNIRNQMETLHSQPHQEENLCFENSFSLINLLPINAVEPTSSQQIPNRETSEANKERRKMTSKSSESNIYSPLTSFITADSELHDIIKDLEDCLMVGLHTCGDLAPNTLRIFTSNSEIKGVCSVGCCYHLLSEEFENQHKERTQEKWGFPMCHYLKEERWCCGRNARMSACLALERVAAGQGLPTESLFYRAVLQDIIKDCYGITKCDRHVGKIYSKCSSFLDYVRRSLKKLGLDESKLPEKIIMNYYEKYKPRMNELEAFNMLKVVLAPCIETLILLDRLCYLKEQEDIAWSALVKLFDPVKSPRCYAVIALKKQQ
UniProt Q14680: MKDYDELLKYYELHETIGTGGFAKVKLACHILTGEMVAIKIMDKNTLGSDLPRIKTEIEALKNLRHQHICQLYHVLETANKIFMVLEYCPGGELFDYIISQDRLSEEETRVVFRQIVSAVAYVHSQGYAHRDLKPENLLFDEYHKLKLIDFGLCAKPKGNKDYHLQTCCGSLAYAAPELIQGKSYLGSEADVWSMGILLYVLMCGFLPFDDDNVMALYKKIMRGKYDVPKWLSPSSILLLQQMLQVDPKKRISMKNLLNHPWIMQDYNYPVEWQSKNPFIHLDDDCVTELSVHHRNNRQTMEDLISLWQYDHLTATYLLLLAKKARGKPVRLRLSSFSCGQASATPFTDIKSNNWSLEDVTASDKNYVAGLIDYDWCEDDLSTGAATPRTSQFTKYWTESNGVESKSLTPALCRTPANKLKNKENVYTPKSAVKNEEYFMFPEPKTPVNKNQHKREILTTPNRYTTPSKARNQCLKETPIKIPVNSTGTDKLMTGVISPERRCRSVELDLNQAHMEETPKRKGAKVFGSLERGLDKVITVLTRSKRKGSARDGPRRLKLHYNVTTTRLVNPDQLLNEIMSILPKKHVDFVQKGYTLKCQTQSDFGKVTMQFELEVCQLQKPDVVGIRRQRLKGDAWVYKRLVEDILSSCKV
UniProt P50579: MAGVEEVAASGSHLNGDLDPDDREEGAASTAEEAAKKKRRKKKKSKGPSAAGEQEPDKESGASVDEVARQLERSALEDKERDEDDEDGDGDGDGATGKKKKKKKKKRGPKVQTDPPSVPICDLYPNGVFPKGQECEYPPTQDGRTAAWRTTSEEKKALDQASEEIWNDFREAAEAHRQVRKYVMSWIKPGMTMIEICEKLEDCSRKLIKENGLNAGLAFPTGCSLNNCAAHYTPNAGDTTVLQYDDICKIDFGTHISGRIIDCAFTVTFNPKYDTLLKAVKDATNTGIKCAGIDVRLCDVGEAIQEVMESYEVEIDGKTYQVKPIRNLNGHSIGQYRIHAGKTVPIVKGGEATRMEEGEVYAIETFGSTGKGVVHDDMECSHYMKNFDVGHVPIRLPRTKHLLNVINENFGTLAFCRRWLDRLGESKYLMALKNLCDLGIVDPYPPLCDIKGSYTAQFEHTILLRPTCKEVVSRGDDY
UniProt Q09328: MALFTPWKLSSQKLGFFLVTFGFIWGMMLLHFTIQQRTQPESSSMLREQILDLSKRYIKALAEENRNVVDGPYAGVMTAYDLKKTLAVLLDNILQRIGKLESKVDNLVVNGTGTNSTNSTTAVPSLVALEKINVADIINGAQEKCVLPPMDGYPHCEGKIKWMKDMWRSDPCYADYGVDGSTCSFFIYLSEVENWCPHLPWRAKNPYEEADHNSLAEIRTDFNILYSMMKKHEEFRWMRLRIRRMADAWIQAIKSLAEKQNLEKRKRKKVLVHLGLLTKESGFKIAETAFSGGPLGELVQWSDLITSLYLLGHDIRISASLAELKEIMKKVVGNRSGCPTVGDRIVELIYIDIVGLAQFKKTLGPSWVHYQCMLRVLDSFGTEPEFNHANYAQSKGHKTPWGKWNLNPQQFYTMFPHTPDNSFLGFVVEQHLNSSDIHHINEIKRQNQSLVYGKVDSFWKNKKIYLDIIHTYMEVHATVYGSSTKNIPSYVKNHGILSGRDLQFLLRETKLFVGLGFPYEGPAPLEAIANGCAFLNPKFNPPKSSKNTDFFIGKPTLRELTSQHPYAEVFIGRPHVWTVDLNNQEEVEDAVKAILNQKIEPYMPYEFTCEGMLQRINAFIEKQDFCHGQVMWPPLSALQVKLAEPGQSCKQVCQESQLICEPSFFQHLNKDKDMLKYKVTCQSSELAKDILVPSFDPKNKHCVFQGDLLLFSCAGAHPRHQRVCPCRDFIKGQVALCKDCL
UniProt Q9UBP6: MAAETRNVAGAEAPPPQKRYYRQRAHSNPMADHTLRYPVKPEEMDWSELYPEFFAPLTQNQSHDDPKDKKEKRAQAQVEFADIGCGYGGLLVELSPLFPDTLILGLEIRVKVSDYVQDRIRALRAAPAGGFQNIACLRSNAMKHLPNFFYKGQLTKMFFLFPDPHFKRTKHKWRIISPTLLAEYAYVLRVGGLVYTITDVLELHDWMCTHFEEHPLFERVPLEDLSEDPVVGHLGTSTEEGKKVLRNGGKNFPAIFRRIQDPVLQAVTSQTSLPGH
UniProt Q96N66: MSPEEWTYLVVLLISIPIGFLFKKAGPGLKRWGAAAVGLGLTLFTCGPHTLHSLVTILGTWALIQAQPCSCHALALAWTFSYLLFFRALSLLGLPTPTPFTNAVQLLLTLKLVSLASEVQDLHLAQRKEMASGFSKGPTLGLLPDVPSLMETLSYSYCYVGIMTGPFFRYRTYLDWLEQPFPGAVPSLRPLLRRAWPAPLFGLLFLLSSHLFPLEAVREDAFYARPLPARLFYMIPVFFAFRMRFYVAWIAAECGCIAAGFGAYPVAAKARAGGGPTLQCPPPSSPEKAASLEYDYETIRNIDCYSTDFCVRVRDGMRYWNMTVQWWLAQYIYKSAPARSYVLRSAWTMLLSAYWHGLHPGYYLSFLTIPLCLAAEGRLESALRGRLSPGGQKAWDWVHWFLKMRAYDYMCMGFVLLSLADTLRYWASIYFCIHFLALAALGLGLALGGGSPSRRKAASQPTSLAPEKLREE
UniProt A0JLT2: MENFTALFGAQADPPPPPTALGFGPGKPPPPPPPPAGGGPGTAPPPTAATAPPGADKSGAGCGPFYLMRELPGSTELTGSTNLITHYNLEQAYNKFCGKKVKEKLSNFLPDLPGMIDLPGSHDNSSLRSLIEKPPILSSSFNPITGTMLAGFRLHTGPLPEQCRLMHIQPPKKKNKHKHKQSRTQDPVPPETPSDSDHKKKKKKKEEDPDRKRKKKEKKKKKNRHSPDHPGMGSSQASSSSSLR
UniProt Q9Y6X3: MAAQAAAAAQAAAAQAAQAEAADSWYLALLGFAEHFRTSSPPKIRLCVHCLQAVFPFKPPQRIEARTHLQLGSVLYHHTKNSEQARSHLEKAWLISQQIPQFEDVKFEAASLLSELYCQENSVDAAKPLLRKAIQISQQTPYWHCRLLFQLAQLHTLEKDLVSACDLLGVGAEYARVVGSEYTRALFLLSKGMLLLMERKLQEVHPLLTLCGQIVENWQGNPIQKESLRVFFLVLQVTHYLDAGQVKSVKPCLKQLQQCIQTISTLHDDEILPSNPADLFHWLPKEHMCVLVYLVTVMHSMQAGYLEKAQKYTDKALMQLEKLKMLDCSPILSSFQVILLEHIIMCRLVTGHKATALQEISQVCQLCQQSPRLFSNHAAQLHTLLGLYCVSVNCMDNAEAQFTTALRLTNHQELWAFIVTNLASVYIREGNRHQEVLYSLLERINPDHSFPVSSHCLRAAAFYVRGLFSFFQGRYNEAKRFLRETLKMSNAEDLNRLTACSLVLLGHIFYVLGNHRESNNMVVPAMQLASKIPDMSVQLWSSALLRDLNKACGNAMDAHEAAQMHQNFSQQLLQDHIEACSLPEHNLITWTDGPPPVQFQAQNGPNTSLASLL
UniProt Q8NBP5: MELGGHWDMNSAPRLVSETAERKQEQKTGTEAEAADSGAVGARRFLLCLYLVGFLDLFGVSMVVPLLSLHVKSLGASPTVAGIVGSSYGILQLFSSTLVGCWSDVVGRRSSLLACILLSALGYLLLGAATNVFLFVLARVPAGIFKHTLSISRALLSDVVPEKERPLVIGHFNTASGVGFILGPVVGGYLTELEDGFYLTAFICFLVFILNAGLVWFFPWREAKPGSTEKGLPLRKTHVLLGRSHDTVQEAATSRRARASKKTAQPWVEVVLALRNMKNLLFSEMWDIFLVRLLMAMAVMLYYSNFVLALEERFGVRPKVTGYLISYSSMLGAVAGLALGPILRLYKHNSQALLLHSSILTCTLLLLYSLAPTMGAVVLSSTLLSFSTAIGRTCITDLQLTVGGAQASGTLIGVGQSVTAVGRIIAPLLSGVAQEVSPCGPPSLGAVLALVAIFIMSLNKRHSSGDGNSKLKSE
UniProt Q9Y3C7: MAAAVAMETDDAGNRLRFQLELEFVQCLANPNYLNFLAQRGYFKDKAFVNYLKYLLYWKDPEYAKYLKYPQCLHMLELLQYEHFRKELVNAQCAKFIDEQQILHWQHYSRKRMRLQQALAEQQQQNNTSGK
UniProt O14770: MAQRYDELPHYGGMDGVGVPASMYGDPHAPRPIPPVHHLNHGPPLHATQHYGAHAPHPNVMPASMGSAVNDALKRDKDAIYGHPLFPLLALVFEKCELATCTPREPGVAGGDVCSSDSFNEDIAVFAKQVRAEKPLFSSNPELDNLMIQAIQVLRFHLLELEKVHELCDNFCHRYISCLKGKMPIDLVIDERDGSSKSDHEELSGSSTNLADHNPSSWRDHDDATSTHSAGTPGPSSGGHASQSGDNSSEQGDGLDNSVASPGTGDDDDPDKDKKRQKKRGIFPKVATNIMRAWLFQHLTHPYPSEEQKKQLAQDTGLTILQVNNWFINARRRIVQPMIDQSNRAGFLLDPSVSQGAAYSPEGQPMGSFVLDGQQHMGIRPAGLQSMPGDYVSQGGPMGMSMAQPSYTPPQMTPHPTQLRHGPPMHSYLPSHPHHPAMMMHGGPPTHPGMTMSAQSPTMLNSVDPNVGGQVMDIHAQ
UniProt Q5SR56: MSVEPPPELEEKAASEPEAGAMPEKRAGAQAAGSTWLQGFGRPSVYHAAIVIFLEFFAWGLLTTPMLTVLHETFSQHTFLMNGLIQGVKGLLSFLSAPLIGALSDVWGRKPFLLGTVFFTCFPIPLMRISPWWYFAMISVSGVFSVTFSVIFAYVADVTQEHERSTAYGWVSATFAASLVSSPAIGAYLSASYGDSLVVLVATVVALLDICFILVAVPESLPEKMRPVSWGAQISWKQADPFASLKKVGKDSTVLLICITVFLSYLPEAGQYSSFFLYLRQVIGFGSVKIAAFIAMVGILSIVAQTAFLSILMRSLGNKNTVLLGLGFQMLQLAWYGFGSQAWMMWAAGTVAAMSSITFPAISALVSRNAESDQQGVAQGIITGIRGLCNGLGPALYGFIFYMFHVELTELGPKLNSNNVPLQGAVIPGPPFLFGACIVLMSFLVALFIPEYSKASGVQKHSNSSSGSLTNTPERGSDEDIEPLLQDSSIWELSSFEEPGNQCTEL

What all share (experiment): log2 fold change, soluble protein after heating vs DMSO (PISA); higher = thermal stabilisation; K562 cells, 10 uM, 30 min; active = over 0.2 and 3.5 SD of the protein, either way, in both replicates (recomputed)
Compound in experiment [1]: C1=CC=C(C=C1)[C@H](COC2=CC3=C(C=C2)NC(=O)N3)NC(=O)C4=CC=CN(C4=O)CC5=CC(=C(C=C5)F)F
A digest of the protocol: (§1)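 K562 cells at 2×10^6 cells/mL were exposed to 10 μM compound for 30 min, then aliquots were heated for 3 min across 48°C-58°C, pooled, and extracted in PBS containing 0.5% NP-40 at 4°C. The supernatant after 21,000xg for 90 min was taken as soluble protein and measured by TMTpro 16plex LC-MS/MS with channel sums equalised. Thermal stability is reported relative to control samples, with values from duplicates. Fold changes are given on a log2 scale.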

Compound in experiment [2]: CC1=C(SC2=C1C(=N[C@H](C3=NN=C(N32)C)CC(=O)N)C4=CC=C(C=C4)Cl)C
A digest of the protocol: as §1

Compound in experiment [3]: CC1=C2C(=CC=C1)N=C(N(C2=O)C3=CC=CC=C3C)CN4C=NC5=C(N=CN=C54)N
A digest of the protocol:
as §1

Compound in experiment [4]: Cc1sc2c(c1C)C(c1ccc(Cl)cc1)=N[C@@H](CC(=O)OC(C)(C)C)c1nnc(C)n1-2
A digest of the protocol:
as §1

Compound in experiment [5]: c1ccc([C@@H]2C[C@H]2NC2CCNCC2)cc1
An outline of the steps: as §1

The list shows a part of the results.

As to MBOAT2 (UniProt Q6ZWT7), the log2 fold change in experiment [1] is inactive: -0.03; in experiment [2], inactive: 0.106; in experiment [3], inactive: -0.042; in experiment [4], inactive: -0.056; in experiment [5] it was inactive: 0.063.

Turning to MED8 isoform 2 (UniProt Q96G25), the log2 fold change in experiment [1] is inactive: 0.011; in experiment [2] it was inactive: -0.053; in experiment [3], active: -0.381; in experiment [5], inactive: 0.039.

MCM3 isoform 2 (UniProt P25205): the log2 fold change was inactive: -0.011 in experiment [1]; inactive: -0.015 in experiment [2]; inactive: 0.026 in experiment [3]; inactive: -0.012 in experiment [4]; inactive: -0.015 in experiment [5].

For the target METTL3 (UniProt Q86U44), the log2 fold change in experiment [1] is inactive: -0.015; in experiment [2], inactive: 0.074; in experiment [3] it was inactive: 0.034; in experiment [4] it was inactive: -0.04; in experiment [5] it was inactive: -0.024.

On to MGAT4B isoform 3 (UniProt Q9UQ53), for which the log2 fold change in experiment [1] is inactive: -0.022; in experiment [2] it was inactive: -0.018; in experiment [3], inactive: 0.102; in experiment [4] it was inactive: -0.074; in experiment [5], inactive: 0.026.

Regarding MAX (UniProt P61244), the log2 fold change in experiment [1] is inactive: 0.065; in experiment [2], inactive: -0.023; in experiment [3] it was inactive: -0.099; in experiment [4] it was inactive: -0.029; in experiment [5], inactive: 0.072.

MBLAC1 (UniProt A4D2B0): the log2 fold change was inactive: -0.019 in experiment [1], inactive: 0.067 in experiment [2], inactive: -0.064 in experiment [3] and inactive: -0.029 in experiment [5].

Turning to MDN1 (UniProt Q9NU22), the log2 fold change in experiment [1] was inactive: -0.08; in experiment [2], inactive: 0.041; in experiment [3], inactive: 0.059; in experiment [4], inactive: -0.054; in experiment [5] it was inactive: -0.049.

Turning to MASTL (UniProt Q96GX5), the log2 fold change in experiment [1] was inactive: 0.047; in experiment [2], inactive: 0.081; in experiment [3], inactive: 0.009; in experiment [5] it was inactive: -0.02.

As to METTL25 (UniProt Q8N6Q8), the log2 fold change in experiment [1] was inactive: -0.185; in experiment [2], inactive: -0.09; in experiment [3], inactive: 0.077; in experiment [5], inactive: 0.043.

For METTL7A (UniProt Q9H8H3), the log2 fold change in experiment [1] is inactive: 0.056; in experiment [2], inactive: 0.049; in experiment [3], inactive: 0.021; in experiment [4], inactive: -0.05; in experiment [5], inactive: 0.009.

Regarding MELK (UniProt Q14680), the log2 fold change in experiment [1] is inactive: 0.044; in experiment [2], inactive: -0.057; in experiment [4], inactive: 0.197; in experiment [5], inactive: -0.057.

Regarding METAP2 (UniProt P50579), the log2 fold change in experiment [1] was inactive: 0.017; in experiment [2] it was inactive: 0.044; in experiment [3] it was inactive: 0.007; in experiment [4], inactive: 0.002; in experiment [5], inactive: 0.001.

Consider MED14 (UniProt O60244), for which the log2 fold change in experiment [1] is inactive: -0.188; in experiment [2], inactive: 0.043; in experiment [3] it was inactive: 0.132; in experiment [4], inactive: 0.175; in experiment [5], inactive: -0.112.

With MGAT1 (UniProt P26572), the log2 fold change in experiment [1] was inactive: -0.029; in experiment [2], inactive: 0.045; in experiment [3], inactive: 0.061; in experiment [4], inactive: 0.021; in experiment [5] it was inactive: -0.025.

As for MGAT5 (UniProt Q09328), the log2 fold change in experiment [1] was inactive: -0.04; in experiment [2] it was inactive: 0.041; in experiment [3] it was inactive: 0; in experiment [4] it was inactive: -0.045; in experiment [5] it was inactive: 0.021.

For MED6 (UniProt O75586), the log2 fold change in experiment [1] is inactive: -0.109; in experiment [2], inactive: -0.041; in experiment [3] it was inactive: -0.209; in experiment [5], inactive: 0.027.

Regarding METTL1 (UniProt Q9UBP6), the log2 fold change in experiment [1] was inactive: 0.038; in experiment [2] it was inactive: -0.001; in experiment [3], inactive: -0.008; in experiment [4], inactive: -0.013; in experiment [5], inactive: 0.021.

On to MEAF6 isoform 3 (UniProt Q9HAF1), for which the log2 fold change in experiment [1] was inactive: 0.062; in experiment [2] it was inactive: -0.027; in experiment [3], inactive: -0.033; in experiment [4], inactive: 0.058; in experiment [5], inactive: -0.06.

Consider MED13 (UniProt Q9UHV7), for which the log2 fold change is inactive: -0.201 in experiment [1]; inactive: -0.144 in experiment [2]; inactive: -0.023 in experiment [3]; inactive: 0.022 in experiment [4]; inactive: 0.109 in experiment [5].

On to MDC1 (UniProt Q14676), for which the log2 fold change in experiment [1] was inactive: -0.005; in experiment [2], inactive: -0.045; in experiment [3] it was inactive: -0.092; in experiment [4], inactive: 0.068; in experiment [5] it was inactive: 0.04.

Consider MBOAT7 (UniProt Q96N66), for which the log2 fold change in experiment [1] is inactive: 0.033; in experiment [2] it was inactive: 0.014; in experiment [3], inactive: 0.05; in experiment [4] it was inactive: -0.035; in experiment [5] it was inactive: 0.035.

Turning to MEGF9 (UniProt Q9H1U4), the log2 fold change was inactive: 0.025 in experiment [1], inactive: 0.186 in experiment [2], inactive: 0.055 in experiment [4] and inactive: -0.053 in experiment [5].

With MED27 (UniProt Q6P2C8), the log2 fold change in experiment [1] was inactive: 0.087; in experiment [2], inactive: 0.005; in experiment [5], inactive: 0.04.

Regarding MED19 (UniProt A0JLT2), the log2 fold change in experiment [1] is inactive: 0.005; in experiment [3], inactive: -0.08.

For MAU2 (UniProt Q9Y6X3), the log2 fold change in experiment [3] was inactive: 0.215; in experiment [4], inactive: -0.031.

With MFSD9 (UniProt Q8NBP5), the log2 fold change in experiment [2] is inactive: -0.057; in experiment [5], inactive: 0.05.

Turning to MED31 (UniProt Q9Y3C7), the log2 fold change in experiment [3] is inactive: 0.035.

MEIS2 (UniProt O14770): the results for the log2 fold change in experiment [1], in experiment [2] and in experiment [5] were inactive: 0.019, inactive: 0.162 and inactive: -0.018, respectively.

MEX3B (UniProt Q6ZN04): the log2 fold change in experiment [1] was inactive: 0.137; in experiment [4] it was inactive: 0.111.

MFSD14B (UniProt Q5SR56): the log2 fold change was inactive: 0.06 in experiment [2], inactive: -0.086 in experiment [3], inactive: 0.086 in experiment [4] and inactive: 0.12 in experiment [5].
